Results reported in patent publication US8497130B2, “Method for determining the partition coefficient of an analyte” (Commonwealth Scientific and Industrial Research Organisation, priority 2007, dated 2013).

Assay: Chemiresistor response towards analytes in water, direct current (DC) measurement
Conditions: dc 100 mV

SMILES | chemiresistor response, % change in current (analyte 2000 ppm in water) | chemiresistor response, % change in current (analyte 5000 ppm in water) | chemiresistor response, % change in current (analyte 10000 ppm in water) | chemiresistor response, % change in current (analyte 20000 ppm in water) | chemiresistor response, % change in current (analyte 0.1 ppm in water) | chemiresistor response, % change in current (analyte 0.2 ppm in water) | chemiresistor response, % change in current (analyte 0.5 ppm in water) | chemiresistor response, % change in current (analyte 1 ppm in water) | chemiresistor response, % change in current (analyte 2 ppm in water) | chemiresistor response, % change in current (analyte 5 ppm in water) | chemiresistor response, % change in current (analyte 10 ppm in water) | chemiresistor response, % change in current (analyte 20 ppm in water)
CCCO [1-propanol] | 0.49% | 1.06% | 1.90% | 3.83% |  |  |  |  |  |  |  | 
Clc1cccc(Cl)c1 [m-dichlorobenzene] |  |  |  |  | 0.23% | 0.37% | 0.69% | 1.18% | 2.36% | 5.63% | 10.19% | 
O=[N+]([O-])c1ccccc1 [nitrobenzene] |  |  |  |  |  |  |  |  | 0.18% | 0.30% | 0.52% | 0.93%
Cc1ccccc1 [toluene] |  |  |  |  | 0.14% | 0.22% | 0.29% | 0.43% | 0.87% | 1.88% | 3.43% | 
